PubChem BioAssay AID652248 | Drosophila RNAi Screening Center, 2013
Screen: 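Genes that govern switching among distinct shape types in fly blood cells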 (primary screen). Cells: cultured Drosophila hemocytes. Knock-down reagent: long dsRNA against Drosophila genes. Detection: 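Automated microscopy of stained actin, tubulin and nuclei; single-cell shape measures assigned to five reference shape types, giving a score per dsRNA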. Direction: elongated score: higher = more elongated bipolar cells; normal round score: higher = more normal rounded cells. Hit rule: 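a gene counts as active when its knock-down clearly increases the elongated score; a low similarity score was then used to rank the actives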.
Shown is a random part of 863 reagents tested. Of all reagents, 32 (3.7%) are marked active. 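Calls also used reproducibility and a similarity ranking whose scores are not deposited; many active genes show only modest elongated scores.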 Entries without a mark were called inactive. Further read-outs or replicates are left out here. Not stated in the record: the amount of reagent, the time to read-out.

{"gene":"Cdc37","amplicon":"DRSC08648","elongated score, rep 1":2.84,"normal round score, rep 1":-2.68}
{"gene":"Cdc37","amplicon":"DRSC27723","elongated score, rep 1":2.3,"normal round score, rep 1":-0.92}
{"gene":"Cdk2","amplicon":"DRSC16921","elongated score, rep 1":-0.03,"normal round score, rep 1":-0.68}
{"gene":"Obsc","amplicon":"DRSC04301","elongated score, rep 1":-0.13,"normal round score, rep 1":0.34}
{"gene":"Obsc","amplicon":"DRSC04302","elongated score, rep 1":0.37,"normal round score, rep 1":-0.77}
{"gene":"Obsc","amplicon":"DRSC04303","elongated score, rep 1":-0.04,"normal round score, rep 1":-0.46}
{"gene":"Obsc","amplicon":"DRSC04430","elongated score, rep 1":-0.53,"normal round score, rep 1":0.45}
{"gene":"Obsc","amplicon":"DRSC22422","elongated score, rep 1":0.57,"normal round score, rep 1":-1.67}
{"gene":"fbl","amplicon":"DRSC11886","elongated score, rep 1":-0.53,"normal round score, rep 1":-2}
{"gene":"fbl","amplicon":"DRSC27922","elongated score, rep 1":-0.43,"normal round score, rep 1":-1.65}
{"gene":"fbl","amplicon":"DRSC29115","elongated score, rep 1":0.32,"normal round score, rep 1":-0.14}
{"gene":"fwd","amplicon":"DRSC08580","elongated score, rep 1":0.51,"normal round score, rep 1":0.94}
{"gene":"fwd","amplicon":"DRSC26680","elongated score, rep 1":-0.53,"normal round score, rep 1":-0.51}
{"gene":"dnt","amplicon":"DRSC03522","elongated score, rep 1":0.18,"normal round score, rep 1":-0.23}
{"gene":"dnt","amplicon":"DRSC25886","elongated score, rep 1":-0.32,"normal round score, rep 1":0.15}
{"gene":"CanA-14F","amplicon":"DRSC23296","elongated score, rep 1":-0.46,"normal round score, rep 1":0.15}
{"gene":"CG32944","amplicon":"DRSC12138","elongated score, rep 1":-0.53,"normal round score, rep 1":0.27}
{"gene":"CG32944","amplicon":"DRSC12341","elongated score, rep 1":1.06,"normal round score, rep 1":-1.55}
{"gene":"SAK","amplicon":"DRSC11879","elongated score, rep 1":2.31,"normal round score, rep 1":-4.65}
{"gene":"SAK","amplicon":"DRSC23329","elongated score, rep 1":-0.53,"normal round score, rep 1":-1.44}
{"gene":"SAK","amplicon":"DRSC29461","elongated score, rep 1":4.31,"normal round score, rep 1":-1.26}

Part of the list above, limited to “elongated score, rep 1”:
Obsc [DRSC04301] = -0.13
Obsc [DRSC04302] = 0.37
Obsc [DRSC04303] = -0.04
Obsc [DRSC04430] = -0.53

Next results follow.
{"gene":"Ptp99A","amplicon":"DRSC13939","elongated score, rep 1":2.68,"normal round score, rep 1":-0.68}
{"gene":"Ptp99A","amplicon":"DRSC14320","elongated score, rep 1":0.81,"normal round score, rep 1":-0.87}
{"gene":"Ptp99A","amplicon":"DRSC16803","elongated score, rep 1":-0.36,"normal round score, rep 1":-2.16}
{"gene":"Ptp99A","amplicon":"DRSC22125","elongated score, rep 1":2.57,"normal round score, rep 1":-1.47}
{"gene":"Ptp99A","amplicon":"DRSC22477","elongated score, rep 1":-0.17,"normal round score, rep 1":-1.28}
{"gene":"pll","amplicon":"DRSC17026","elongated score, rep 1":"2.39 (active)","normal round score, rep 1":-0.93}
{"gene":"pll","amplicon":"DRSC28551","elongated score, rep 1":"4.4 (active)","normal round score, rep 1":-3.21}
{"gene":"awd","amplicon":"DRSC16906","elongated score, rep 1":2.65,"normal round score, rep 1":-1.85}
{"gene":"InR","amplicon":"DRSC16717","elongated score, rep 1":-0.53,"normal round score, rep 1":-0.87}
{"gene":"Pp4-19C","amplicon":"DRSC20559","elongated score, rep 1":-0.53,"normal round score, rep 1":-0.93}
{"gene":"Pp4-19C","amplicon":"DRSC21251","elongated score, rep 1":-0.53,"normal round score, rep 1":0}
{"gene":"Pp4-19C","amplicon":"DRSC23319","elongated score, rep 1":4.31,"normal round score, rep 1":-2.37}
{"gene":"Pp4-19C","amplicon":"DRSC26053","elongated score, rep 1":0.6,"normal round score, rep 1":-2.56}
{"gene":"Ptp10D","amplicon":"DRSC20272","elongated score, rep 1":-0.53,"normal round score, rep 1":-4.65}
{"gene":"CG7069","amplicon":"DRSC16188","elongated score, rep 1":-0.35,"normal round score, rep 1":0.68}
{"gene":"meng","amplicon":"DRSC02134","elongated score, rep 1":0.27,"normal round score, rep 1":-1.27}
{"gene":"meng","amplicon":"DRSC28743","elongated score, rep 1":-0.3,"normal round score, rep 1":-1.53}
